Laboratory results reported in patent publication US11952433B2, “Heterochiral peptide-complex and composition for measuring nuclear magnetic resonance spectroscopy residual dipolar coupling containing self-assembled intermediates of heterochiral peptide-complex” (INDUSTRY-ACADEMIC COOPERATION FOUNDATION, YONSEI UNIVERSITY, priority 2020, dated 2024).

Assay: 2H-NMR quadrupolar splitting of deuterium in D2O with the peptide complex as alignment medium
Assay type: physicochemical
Conditions: 8 mg/mL, 10% (v/v) D2O, 298 K; for quadrupole coupling: crystal (final self-assembled state)

Row | Substance | quadrupole coupling | 2H quadrupolar splitting (self-assembled 1D intermediate state) [Hz]
1 | PEGylated (L)Trp-(L)Trp-(L)Trp-(L)Trp-(L)Trp-(L)Trp [Comparative Example 1] | not observed at all | –
2 | (D)Trp-(L)Trp-(D)Trp-(L)Tre-(D)Trp-(L)Trp [Example 1] | not observed at all | 1.74
